# PubChem BioAssay AID1053208 – Peter MacCallum Cancer Centre, 2014
# Aim: 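Genes whose silencing cuts survival of bone tumour cells only with doxorubicin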 (primary screen)
# System: mouse osteosarcoma cells, early-passage culture from an engineered mouse model of fibroblastic bone tumour
# Knock-down reagent: siRNA pool against mouse genes, 40 nM
# Timing: about 120 h (48 h before drug, then 72 h with drug)
# Challenge: doxorubicin 100 nM for 72 h, roughly 30-40% inhibitory dose
# Read-out: 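Luminescent ATP signal taken as viability with or without 100 nM doxorubicin for 72 h; mean of two wells set against non-targeting siRNA and turned into robust z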
# Scale: viability z-score with doxorubicin and doxorubicin viability vs non-targeting: higher = more viable cells under doxorubicin; viability z-score without drug: higher = more viable cells with knock-down alone; z-score of drug to no-drug ratio: higher = less drug sensitisation by knock-down
# Hit rule: 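a pool counts as active when its viability z-score with doxorubicin is -2 or below and its z-score without drug lies between -2 and 2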
# In all, the deposit lists about 17,000 reagents; below is a random part of them. Of all reagents, 788 (4.7%) were called active. 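Calls rest on z-score classes alone; an extra cut-off of viability at most 70% of control was not applied to them.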 Unmarked entries are inactive. The numbers tell different reagents against one gene apart.
gene symbol,reagent,combined z-score class,viability z-score with doxorubicin,viability z-score without drug,z-score of drug to no-drug ratio,doxorubicin viability vs non-targeting
Ticrr,1,low cell count with and without drug,-3.15,-2.53,-1.8,0.66
Cxcr1,1,no change with or without drug,0.9,-0.84,1.69,1.02
Mterf2,1,no change with or without drug,0.45,-0.17,0.67,0.98
Vdac1,1,no change with or without drug,-0.22,-0.84,0.45,0.92
Eda2r,1,no change with or without drug,-0.67,0.51,-0.9,0.88
Fcna,1,no change with or without drug,-0.11,0.67,-0.45,0.93
Syt15,1,no change with or without drug,-0.79,0.17,-0.79,0.87
Map4k3,1,no change with or without drug,1.12,-0.51,1.69,1.04
Rbak,1,no change with or without drug,1.69,1.85,0.56,1.09
Atoh1,1,no change with or without drug,1.12,1.18,0.45,1.04
Vmn1r219,1,high cell count with and without drug,2.25,2.36,0.79,1.14
Dlx4,1,no change with or without drug,-1.12,-1.52,0,0.84
Vmn1r51,1,no change with or without drug,-0.45,-0.17,-0.22,0.9
Foxc2,1,no change with or without drug,-0.11,1.35,-0.9,0.93
Sema3d,1,no change with or without drug,-1.12,0.34,-1.24,0.84
Trpt1,1,no change with or without drug,1.12,1.01,0.56,1.04
Wdr3,1,no change with or without drug,-1.12,-1.52,0,0.84

Not a retest: an excerpt of the list.
gene symbol,reagent,combined z-score class,viability z-score with doxorubicin,viability z-score without drug,z-score of drug to no-drug ratio,doxorubicin viability vs non-targeting
Trpt1,1,no change with or without drug,1.12,1.01,0.56,1.04
Wdr3,1,no change with or without drug,-1.12,-1.52,0,0.84

The list goes on.
gene symbol,reagent,combined z-score class,viability z-score with doxorubicin,viability z-score without drug,z-score of drug to no-drug ratio,doxorubicin viability vs non-targeting
Kptn,1,no change with or without drug,-0.22,-0.51,0.22,0.92
Fam167a,1,no change with or without drug,0,0.34,-0.11,0.94
Kcnq4,1,no change with or without drug,-0.67,0,-0.56,0.88
Clca3a1,1,no change with or without drug,-1.35,-0.84,-0.79,0.82
Or52b1,1,no change with or without drug,-1.46,-1.85,-0.22,0.81
Bltp1,1,no change with or without drug,0.79,-0.84,1.57,1.01
Bltp1,2,no change with or without drug,-0.67,-1.35,0.34,0.88
Scyl1,1,no change with or without drug,-0.34,-0.51,0.11,0.91
Slc15a3,1,no change with or without drug,-1.8,-0.84,-1.24,0.78
Slc34a2,1,no change with or without drug,-0.67,-1.01,0.11,0.88
9330155M09Rik,1,no change with or without drug,-0.67,-1.52,0.45,0.88
Med31,1,high cell count with doxorubicin only,2.02,-1.85,3.93,1.12
Kdr,1,no change with or without drug,0.56,1.35,-0.22,0.99
Chdh,1,no change with or without drug,-1.8,-0.67,-1.35,0.78
Pdzk1ip1,1,no change with or without drug,-1.69,-0.51,-1.35,0.79
BC049715,1,no change with or without drug,0.9,-0.34,1.35,1.02
Hspa2,1,no change with or without drug,-1.12,-0.67,-0.67,0.84
Tmprss11d,1,no change with or without drug,1.12,0.17,1.12,1.04
Bpnt2,1,no change with or without drug,0.22,0,0.34,0.96
Tatdn1,1,no change with or without drug,0.67,-0.67,1.35,1
Tuba8,1,no change with or without drug,0.9,0.34,0.79,1.02
Syne3,1,no change with or without drug,0.9,0.17,0.9,1.02
Apol10a,1,no change with or without drug,-0.56,0.17,-0.56,0.89
Tusc3,1,no change with or without drug,0.45,-0.51,1.01,0.98
Gpank1,1,no change with or without drug,0,-1.85,1.57,0.94
Cherp,1,no change with or without drug,-1.12,-1.18,-0.34,0.84
Ofcc1,1,no change with or without drug,1.24,-0.84,2.14,1.05
Qtrt1,1,no change with or without drug,0.45,-0.17,0.67,0.98
Gpr85,1,no change with or without drug,-0.79,0,-0.67,0.87
Or52p1,1,high cell count without drug only,1.57,2.19,0.22,1.08
Mettl25b,1,no change with or without drug,1.35,-0.17,1.69,1.06
Klra9,1,no change with or without drug,-0.22,1.52,-1.12,0.92
Xcl1,1,no change with or without drug,-1.8,-1.18,-1.01,0.78
